From BigSolDB 2.1

CCN(CC)CC(=O)Nc1c(C)cccc1C
solubility (mole fraction)
Conditions | 292.15 K | 297.15 K | 302.15 K | 307.15 K | 312.15 K | 317.15 K | 322.15 K | 327.15 K | 332.15 K
in acetone | 0.66 | 0.69 | 0.73 | 0.74 | 0.77 | 0.82 | 0.84 | 0.87 | 0.91
in ethanol | 0.43 | 0.47 | 0.52 | 0.56 | 0.62 | 0.67 | 0.73 | 0.8 | 0.86
in ethyl acetate | 0.6 | 0.63 | 0.69 | 0.72 | 0.75 | 0.78 | 0.8 | 0.85 | 0.89
in isobutanol | 0.65 | 0.68 | 0.71 | 0.74 | 0.76 | 0.79 | 0.82 | 0.86 | 0.9
in isopropanol | 0.6 | 0.62 | 0.66 | 0.7 | 0.74 | 0.76 | 0.79 | 0.83 | 0.89
in methyl acetate | 0.51 | 0.55 | 0.61 | 0.66 | 0.71 | 0.74 | 0.78 | 0.84 | 0.88
in n-butanol | 0.64 | 0.67 | 0.7 | 0.74 | 0.76 | 0.77 | 0.8 | 0.84 | 0.89
in n-propanol | 0.64 | 0.67 | 0.7 | 0.74 | 0.76 | 0.79 | 0.82 | 0.85 | 0.9
